Source: patent US5344765A, “DNA encoding polypeptides with activity against gram-positive and gram-negative bacteria” (priority 1993, dated 1994)
Not every detail of the peptide structures is certain; ends, links or a residue may be inferred. Numbered stars: 1 amine (or outer) side, 2 acyl side, 3 side chain; on linkers, the order of the positions; unused ones are H or OH. Square brackets hold non-standard residues; d marks the D form. Peptide text beside a SMILES is read from it. Ethylenediamine = C(CN[*:2])N[*:1]; hSer = N[C@@H](CCO)C(=O)O

Columns and labels:
B. subtilis = assay: halo (inhibition zone) agar assay of bactericidal activity; assay type: cell-based; settings: Bacillus subtilus; per nanomole of polypeptide applied to well
Description: The assay for antimicrobial activity was performed by pouring 10 ml of agar in TYE media containing about 10^7 viable cells of the test organisms. Wells, 2 mm in diameter, were punched in the agar plates. Aliquots of the modified cecropin-like polypeptides (2-12 ul) were then added to each well. The diameter of the inhibition zones, or haloes, around the wells, were measured after overnight incubation at 25° C.
The activities of various cecropin-like polypeptides were tested against both Gram-negative and Gram-positive organisms. Anti-microbial activity against the Gram-negative organisms remained unaltered for most of the Gram-negative bacteria (except, i.e., Serratia marcescens) as shown in Table 1. […] To determine a standard of halo formation, the various modified cecropin-like polypeptides were also applied to E. coli D21. Activity shown in Tables 1 and 2 is expressed as the ratio of the radius of the cleared halo for each organism versus that for E. coli D21.
The cecropin-like polypeptide modified at the carboxy terminus with ehtylenediamine and naturally occurring cecropin A were tested against a variety of organisms. The relative activities of the antimicrobial agents were expressed per nanomole of polypeptide applied to each well (Table 3).

a variety of organisms = assay: halo assay, activity per nanomole, summary; assay type: cell-based; settings: broad range of organisms; Table 3

CC[C@H](C)[C@H](NC(=O)CNC(=O)[C@H](CC(=O)O)NC(=O)[C@H](CCCNC(=N)N)NC(=O)[C@@H](NC(=O)[C@H](CC(N)=O)NC(=O)[C@H](CCC(N)=O)NC(=O)CNC(=O)[C@@H](NC(=O)[C@H](CCCCN)NC(=O)[C@H](CCC(=O)O)NC(=O)[C@@H](NC(=O)[C@H](CCCCN)NC(=O)[C@H](CCCCN)NC(=O)[C@H](Cc1ccccc1)NC(=O)[C@H](CC(C)C)NC(=O)[C@H](CCCCN)NC(=O)[C@H](Cc1c[nH]c2ccccc12)NC(=O)[C@@H](N)CCCCN)[C@@H](C)CC)C(C)C)[C@@H](C)CC)C(=O)N[C@H](C(=O)N[C@@H](CCCCN)C(=O)N[C@@H](C)C(=O)NCC(=O)N1CCC[C@H]1C(=O)N[C@@H](C)C(=O)N[C@H](C(=O)N[C@@H](C)C(=O)N[C@H](C(=O)N[C@H](C(=O)NCC(=O)N[C@@H](CCC(N)=O)C(=O)N[C@@H](C)C(=O)N[C@H](C(=O)N[C@@H](CCC(N)=O)C(=O)N[C@H](C(=O)N[C@@H](C)C(=O)N[C@@H](CCCCN)C(=O)N[C@@H](CCO)C(=O)NCCN)[C@@H](C)CC)[C@@H](C)O)C(C)C)C(C)C)C(C)C)[C@@H](C)CC [CA--HS--NH--Et--NH2] (H-KWKLFKKIEKVGQNIRDGIIKAGPAVAVVGQATQIAK[hSer]-Ethylenediamine)
Activity per Nanomole (radius of the inhibitory ring) (B. subtilis): 2.7 millimeters | Potency per nanomole compared with naturally occurring cecropin (a variety of organisms): more potent per nanomole than naturally occurring cecropin
